{"sequences": {"note": "Amino acid sequences for entries named in this document (tags omitted). A change or cut given only in a name is not applied to a line headed by its entry.", "UniProt P04386": "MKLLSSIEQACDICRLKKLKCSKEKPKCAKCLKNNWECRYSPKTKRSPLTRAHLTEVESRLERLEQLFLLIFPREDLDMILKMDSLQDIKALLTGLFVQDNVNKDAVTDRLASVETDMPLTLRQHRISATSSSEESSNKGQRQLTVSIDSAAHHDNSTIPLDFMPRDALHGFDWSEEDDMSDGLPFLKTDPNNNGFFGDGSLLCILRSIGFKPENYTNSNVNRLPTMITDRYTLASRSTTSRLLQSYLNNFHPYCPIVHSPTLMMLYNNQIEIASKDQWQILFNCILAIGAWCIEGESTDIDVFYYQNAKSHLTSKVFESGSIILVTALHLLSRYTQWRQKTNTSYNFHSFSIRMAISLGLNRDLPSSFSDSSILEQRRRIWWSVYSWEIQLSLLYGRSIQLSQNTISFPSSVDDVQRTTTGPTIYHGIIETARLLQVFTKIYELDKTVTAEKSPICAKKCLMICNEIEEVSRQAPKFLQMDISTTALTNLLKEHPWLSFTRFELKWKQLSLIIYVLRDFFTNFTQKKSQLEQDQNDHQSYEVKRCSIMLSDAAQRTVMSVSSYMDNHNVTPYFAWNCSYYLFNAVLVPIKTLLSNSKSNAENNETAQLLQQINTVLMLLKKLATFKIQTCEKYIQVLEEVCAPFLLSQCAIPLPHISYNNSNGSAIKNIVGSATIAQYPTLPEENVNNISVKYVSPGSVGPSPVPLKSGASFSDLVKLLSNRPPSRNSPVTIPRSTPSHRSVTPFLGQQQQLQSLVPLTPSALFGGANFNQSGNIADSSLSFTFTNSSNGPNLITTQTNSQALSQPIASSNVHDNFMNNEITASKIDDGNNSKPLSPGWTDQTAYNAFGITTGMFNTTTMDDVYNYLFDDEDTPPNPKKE", "UniProt Q7TSJ6": "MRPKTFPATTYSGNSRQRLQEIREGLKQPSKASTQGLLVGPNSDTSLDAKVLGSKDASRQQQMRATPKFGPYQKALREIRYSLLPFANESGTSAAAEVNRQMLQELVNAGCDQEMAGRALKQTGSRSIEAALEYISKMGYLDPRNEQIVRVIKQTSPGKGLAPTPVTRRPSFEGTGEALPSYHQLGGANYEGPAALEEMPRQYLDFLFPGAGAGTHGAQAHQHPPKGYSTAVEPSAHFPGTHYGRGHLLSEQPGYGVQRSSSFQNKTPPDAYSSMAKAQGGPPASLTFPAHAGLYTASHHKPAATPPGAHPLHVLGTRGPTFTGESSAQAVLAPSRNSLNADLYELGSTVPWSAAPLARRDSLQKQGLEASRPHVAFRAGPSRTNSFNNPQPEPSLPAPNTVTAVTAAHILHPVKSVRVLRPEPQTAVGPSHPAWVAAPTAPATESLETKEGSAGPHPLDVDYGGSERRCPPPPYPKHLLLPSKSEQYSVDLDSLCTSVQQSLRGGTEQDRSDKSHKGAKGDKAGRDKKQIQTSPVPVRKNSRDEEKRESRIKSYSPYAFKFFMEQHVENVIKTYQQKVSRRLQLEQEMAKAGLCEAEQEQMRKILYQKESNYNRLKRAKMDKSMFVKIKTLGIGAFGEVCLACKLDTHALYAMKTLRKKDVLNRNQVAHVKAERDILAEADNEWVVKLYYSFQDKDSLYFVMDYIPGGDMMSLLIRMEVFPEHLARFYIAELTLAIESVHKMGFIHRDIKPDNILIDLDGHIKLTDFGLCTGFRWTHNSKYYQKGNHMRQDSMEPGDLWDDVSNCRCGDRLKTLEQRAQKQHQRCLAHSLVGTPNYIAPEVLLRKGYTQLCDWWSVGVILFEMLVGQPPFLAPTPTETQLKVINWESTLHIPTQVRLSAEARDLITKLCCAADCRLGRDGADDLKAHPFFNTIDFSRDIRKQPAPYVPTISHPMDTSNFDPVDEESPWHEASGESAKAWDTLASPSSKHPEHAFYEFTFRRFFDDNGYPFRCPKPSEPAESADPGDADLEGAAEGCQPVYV"}, "source": "patent US20030180947A1", "about": "“Circadian control of stem/progenitor cell self-renewal and differentiation and of clock controlled gene expression” (priority 2001, published 2003)", "test_in_all_cases": "yeast two-hybrid assay", "key": {"[1]": {"molecular_target": "T1, mRBT1 fused to the GAL4 activation domain (pGADT7-mRBT1) (murine) (UniProt Q9ERC3)", "T1 sequence (looked up)": "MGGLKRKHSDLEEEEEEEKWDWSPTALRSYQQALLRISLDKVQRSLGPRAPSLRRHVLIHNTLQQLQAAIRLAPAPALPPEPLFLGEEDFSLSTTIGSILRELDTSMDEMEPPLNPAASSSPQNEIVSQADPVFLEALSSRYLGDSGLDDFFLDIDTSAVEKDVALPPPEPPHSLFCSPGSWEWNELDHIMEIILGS"}, "[2]": {"molecular_target": "mLATS2 fused to the GAL4 DNA binding domain (pGBKT7-mLATS2) (mouse) (UniProt P04386+Q7TSJ6)"}, "[3]": {"molecular_target": "mLATS2N373 fused to the GAL4 DNA binding domain (pGBKT7-mLATS2N373) (mouse) (UniProt P04386+Q7TSJ6)"}}, "note": "These are yes or no findings as the source states them, for the method shown. Some binding calls cover weakened binding; strength is not graded here. Tags and fused reporters may be left off the sequences shown."}
{"molecule": "mLATS2N373 fused to the GAL4 DNA binding domain (pGBKT7-mLATS2N373) (from UniProt P04386 1-147; Q7TSJ6 1-373)", "values": [{"measurement": "binding", "setting": "[1]", "result": "binds"}]}
{"molecule": "mLATS2 fused to the GAL4 DNA binding domain (pGBKT7-mLATS2) (from UniProt P04386 1-147; Q7TSJ6 1-1042)", "values": [{"measurement": "binding", "setting": "[1]", "result": "binds"}]}
{"molecule": "mRBT1N121 fused to the GAL4 activation domain (pGADT7-mRBT1N121) (protein, murine, UniProt Q9ERC3 1-121, looked up, not shown: large carriers) MGGLKRKHSDLEEEEEEEKWDWSPTALRSYQQALLRISLDKVQRSLGPRAPSLRRHVLIHNTLQQLQAAIRLAPAPALPPEPLFLGEEDFSLSTTIGSILRELDTSMDEMEPPLNPAASSS", "values": [{"measurement": "binding", "setting": "[2]", "result": "binds"}, {"measurement": "binding", "setting": "[3]", "result": "binds"}]}
{"molecule": "mRBT1 fused to the GAL4 activation domain (pGADT7-mRBT1) (protein, murine, UniProt Q9ERC3 1-197, looked up, not shown: large carriers) MGGLKRKHSDLEEEEEEEKWDWSPTALRSYQQALLRISLDKVQRSLGPRAPSLRRHVLIHNTLQQLQAAIRLAPAPALPPEPLFLGEEDFSLSTTIGSILRELDTSMDEMEPPLNPAASSSPQNEIVSQADPVFLEALSSRYLGDSGLDDFFLDIDTSAVEKDVALPPPEPPHSLFCSPGSWEWNELDHIMEIILGS", "values": [{"measurement": "binding", "setting": "[2]", "result": "binds"}]}
